Source: PubChem BioAssay AID1259308 (NCATS, 2017)
Shown is a random part of about 59,000 deposited reagents. Over the whole deposit, about 1,510 (2.6%) are marked active. 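Calls use total luciferase alone and ignore viability, so some active siRNAs may act by altering cell number.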 The numbers tell different reagents against one gene apart. Not all columns of the deposit are shown.

Test: 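Genes whose loss raises luciferase production in HEK293 cells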 (primary screen)
System: human HEK293 embryonic kidney cells stably expressing firefly luciferase (HEK-CMV-Luc2-Hygro)
Knock-down reagent: single siRNA against human genes, 0.8 pmol siRNA per well
Duration: 72 h
Measured: 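Luciferase light (ONE-Glo) measured on one replicate plate set and viability (CellTiter-Glo) on the other, scaled to a negative control siRNA, with robust z-scores and luciferase per cell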
Scale: total luciferase, z-score: higher = more reporter protein produced
Active means: 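Active when the median/MAD z-score for overall luciferase is greater than 3; a gene was taken forward for validation with new siRNAs if at least two of its three siRNAs passed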
Calls: active = raised luciferase; inactive = no rise

TEX13A (testis expressed 13A) #1 | total luciferase, z-score: 0.966; activity call: inactive
TEX13A (testis expressed 13A) #2 | total luciferase, z-score: 1.43; activity call: inactive
TEX13A (testis expressed 13A) #3 | total luciferase, z-score: 1.16; activity call: inactive
GRIK3 (glutamate ionotropic receptor kainate type subunit 3) #1 | total luciferase, z-score: -0.333; activity call: inactive
GRIK3 (glutamate ionotropic receptor kainate type subunit 3) #2 | total luciferase, z-score: 0.165; activity call: inactive
GRIK3 (glutamate ionotropic receptor kainate type subunit 3) #3 | total luciferase, z-score: -0.371; activity call: inactive
PHOX2A (paired like homeobox 2A) #1 | total luciferase, z-score: 0.512; activity call: inactive
PHOX2A (paired like homeobox 2A) #2 | total luciferase, z-score: 2; activity call: inactive
PHOX2A (paired like homeobox 2A) #3 | total luciferase, z-score: 0.652; activity call: inactive
STKLD1 (serine/threonine kinase like domain containing 1) #1 | total luciferase, z-score: -0.961; activity call: inactive
STKLD1 (serine/threonine kinase like domain containing 1) #2 | total luciferase, z-score: 0.306; activity call: inactive
STKLD1 (serine/threonine kinase like domain containing 1) #3 | total luciferase, z-score: -0.49; activity call: inactive
PANK1 (pantothenate kinase 1) #1 | total luciferase, z-score: -0.687; activity call: inactive
PANK1 (pantothenate kinase 1) #2 | total luciferase, z-score: -0.634; activity call: inactive
PANK1 (pantothenate kinase 1) #3 | total luciferase, z-score: -1.99; activity call: inactive
HAUS6 (HAUS augmin like complex subunit 6) #1 | total luciferase, z-score: 1.01; activity call: inactive
HAUS6 (HAUS augmin like complex subunit 6) #2 | total luciferase, z-score: -0.488; activity call: inactive
HAUS6 (HAUS augmin like complex subunit 6) #3 | total luciferase, z-score: -0.54; activity call: inactive
HYPK (huntingtin interacting protein K) #1 | total luciferase, z-score: -0.366; activity call: inactive
HYPK (huntingtin interacting protein K) #2 | total luciferase, z-score: -1.58; activity call: inactive
HYPK (huntingtin interacting protein K) #3 | total luciferase, z-score: 2.01; activity call: inactive
ODF4 (outer dense fiber of sperm tails 4) #1 | total luciferase, z-score: 0.818; activity call: inactive
ODF4 (outer dense fiber of sperm tails 4) #2 | total luciferase, z-score: -1.23; activity call: inactive
ODF4 (outer dense fiber of sperm tails 4) #3 | total luciferase, z-score: 1.64; activity call: inactive
ANKRD13C (ankyrin repeat domain 13C) #1 | total luciferase, z-score: 0.119; activity call: inactive
ANKRD13C (ankyrin repeat domain 13C) #2 | total luciferase, z-score: 0.248; activity call: inactive
ANKRD13C (ankyrin repeat domain 13C) #3 | total luciferase, z-score: 0.952; activity call: inactive
SLC44A5 #1 | total luciferase, z-score: -0.392; activity call: inactive
SLC44A5 #2 | total luciferase, z-score: -2.53; activity call: inactive
SLC44A5 #3 | total luciferase, z-score: -0.0688; activity call: inactive
SH3TC1 (SH3 domain and tetratricopeptide repeats 1) #1 | total luciferase, z-score: 3.43; activity call: active
SH3TC1 (SH3 domain and tetratricopeptide repeats 1) #2 | total luciferase, z-score: -0.104; activity call: inactive
SH3TC1 (SH3 domain and tetratricopeptide repeats 1) #3 | total luciferase, z-score: 0.349; activity call: inactive

No new results follow: 4 of the entries above.
PHOX2A (paired like homeobox 2A) #3 | total luciferase, z-score: 0.652; activity call: inactive
STKLD1 (serine/threonine kinase like domain containing 1) #1 | total luciferase, z-score: -0.961; activity call: inactive
STKLD1 (serine/threonine kinase like domain containing 1) #2 | total luciferase, z-score: 0.306; activity call: inactive
STKLD1 (serine/threonine kinase like domain containing 1) #3 | total luciferase, z-score: -0.49; activity call: inactive
